{"source": "PubChem BioAssay AID212", "about": "(DTP/NCI, 2004)", "test_system": "BDF1 mice, colon carcinoma 38 sc, T/C %", "test": "NCI In Vivo Anticancer Drug Screen. Data for tumor model Colon Carcinoma 38 (subcutaneous) in B6D2F1 (BDF1) mice", "in_short": "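T/C readout: treated group (T) measurement over vehicle control group (C) measurement. Endpoint is survival or tumor size in mice bearing a transplanted tumor.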", "note": "The list does not hold the whole screen: it is rich in T/C values a quarter to a half above the control, in often repeated tests (any T/C) and in doses without a T/C. Other doses and runs of a compound stand elsewhere. T/C gives the treated animals as a percentage of the vehicle group. Schedule codes are those of the source, taken here to give the interval after Q, in days (D) or hours (H), and the number of doses after X. Some doses have a count of surviving animals in place of a T/C: the source holds a T/C of zero for them, seemingly a mark for toxic or unscored doses. Some survivor counts are full or nearly so, which does not show that the dose was tolerated: survival well below the control is almost never listed, so the zero probably covers shortened survival too. Survivors were counted at the toxicity check, usually on the fifth day, unless a day is given; later deaths do not show. Some doses were run more than once; the results are listed from low to high. Signs of the kind (2×) stand for listed records that agree. Where survival is the endpoint, this PubChem deposit counts one and a half times the control or more as active, and values a quarter to a half above the control carry no call in these data; other NCI protocols may use other cut-offs. Some T/C values carry the count of animals alive at the toxicity check (mostly the fifth day); without a count, all were alive then.", "data": [{"smiles": "NC(C/[N+]([O-])=N/O)C(=O)O", "note": "(stereo not given)", "values": [{"measurement": "T/C", "setting": "T/C endpoint: median survival time, dose: 8.78 mg/kg/injection, schedule: Q01DX010 (ip), vehicle: alkali diluted with saline, evaluated on day 33, higher T/C = longer survival", "result": "113 % of control"}, {"measurement": "T/C", "setting": "T/C endpoint: median survival time, dose: 8.78 mg/kg/injection, schedule: Q01DX010 (ip), vehicle: alkali diluted with saline, evaluated on day 41, higher T/C = longer survival", "result": "88 % of control"}, {"measurement": "T/C", "setting": "T/C endpoint: median survival time, dose: 8.78 mg/kg/injection, schedule: Q01DX010 (ip), vehicle: alkali diluted with saline, evaluated on day 80, higher T/C = longer survival", "result": "88 % of control"}, {"measurement": "T/C", "setting": "T/C endpoint: median survival time, dose: 8.78 mg/kg/injection, schedule: Q01DX010 (ip), vehicle: alkali diluted with saline, evaluated on day 90, higher T/C = longer survival", "result": "114 % of control"}, {"measurement": "T/C", "setting": "T/C endpoint: median survival time, dose: 13.2 mg/kg/injection, schedule: Q01DX010 (ip), vehicle: alkali diluted with saline, evaluated on day 33, higher T/C = longer survival", "result": "122 % of control"}, {"measurement": "T/C", "setting": "T/C endpoint: median survival time, dose: 13.2 mg/kg/injection, schedule: Q01DX010 (ip), vehicle: alkali diluted with saline, evaluated on day 41, higher T/C = longer survival", "result": "93 % of control"}, {"measurement": "T/C", "setting": "T/C endpoint: median survival time, dose: 13.2 mg/kg/injection, schedule: Q01DX010 (ip), vehicle: alkali diluted with saline, evaluated on day 80, higher T/C = longer survival", "result": "92 % of control"}, {"measurement": "T/C", "setting": "T/C endpoint: median survival time, dose: 13.2 mg/kg/injection, schedule: Q01DX010 (ip), vehicle: alkali diluted with saline, evaluated on day 90, higher T/C = longer survival", "result": "123 % of control"}, {"measurement": "T/C", "setting": "T/C endpoint: median survival time, dose: 19.8 mg/kg/injection, schedule: Q01DX010 (ip), vehicle: alkali diluted with saline, evaluated on day 33, higher T/C = longer survival", "result": "110 % of control"}, {"measurement": "T/C", "setting": "T/C endpoint: median survival time, dose: 19.8 mg/kg/injection, schedule: Q01DX010 (ip), vehicle: alkali diluted with saline, evaluated on day 41, higher T/C = longer survival", "result": "117 % of control"}, {"measurement": "T/C", "setting": "T/C endpoint: median survival time, dose: 19.8 mg/kg/injection, schedule: Q01DX010 (ip), vehicle: alkali diluted with saline, evaluated on day 80, higher T/C = longer survival", "result": "116 % of control"}, {"measurement": "T/C", "setting": "T/C endpoint: median survival time, dose: 19.8 mg/kg/injection, schedule: Q01DX010 (ip), vehicle: alkali diluted with saline, evaluated on day 90, higher T/C = longer survival", "result": "114 % of control"}, {"measurement": "T/C", "setting": "T/C endpoint: median survival time, dose: 29.6 mg/kg/injection, schedule: Q01DX010 (ip), vehicle: alkali diluted with saline, evaluated on day 33, higher T/C = longer survival", "result": "134 % of control [9 of 10 alive on day 33]"}, {"measurement": "T/C", "setting": "T/C endpoint: median survival time, dose: 29.6 mg/kg/injection, schedule: Q01DX010 (ip), vehicle: alkali diluted with saline, evaluated on day 41, higher T/C = longer survival", "result": "102 % of control"}, {"measurement": "T/C", "setting": "T/C endpoint: median survival time, dose: 29.6 mg/kg/injection, schedule: Q01DX010 (ip), vehicle: alkali diluted with saline, evaluated on day 80, higher T/C = longer survival", "result": "102 % of control"}, {"measurement": "T/C", "setting": "T/C endpoint: median survival time, dose: 29.6 mg/kg/injection, schedule: Q01DX010 (ip), vehicle: alkali diluted with saline, evaluated on day 90, higher T/C = longer survival", "result": "132 % of control"}, {"measurement": "T/C", "setting": "T/C endpoint: median survival time, dose: 44.4 mg/kg/injection, schedule: Q01DX010 (ip), vehicle: alkali diluted with saline, evaluated on day 33, higher T/C = longer survival", "result": "140 % of control [9 of 10 alive on day 33]"}, {"measurement": "T/C", "setting": "T/C endpoint: median survival time, dose: 44.4 mg/kg/injection, schedule: Q01DX010 (ip), vehicle: alkali diluted with saline, evaluated on day 41, higher T/C = longer survival", "result": "91 % of control"}, {"measurement": "T/C", "setting": "T/C endpoint: median survival time, dose: 44.4 mg/kg/injection, schedule: Q01DX010 (ip), vehicle: alkali diluted with saline, evaluated on day 80, higher T/C = longer survival", "result": "92 % of control"}, {"measurement": "T/C", "setting": "T/C endpoint: median survival time, dose: 44.4 mg/kg/injection, schedule: Q01DX010 (ip), vehicle: alkali diluted with saline, evaluated on day 90, higher T/C = longer survival", "result": "141 % of control"}, {"measurement": "survivor count", "setting": "T/C endpoint: median survival time, dose: 66.7 mg/kg/injection, schedule: Q01DX010 (ip), vehicle: alkali diluted with saline, higher T/C = longer survival", "result": "4 of 10 on day 33, 5 of 10 on day 41, 9 of 10, 10 of 10"}, {"measurement": "survivor count", "setting": "T/C endpoint: median survival time, dose: 100.0 mg/kg/injection, schedule: Q01DX010 (ip), vehicle: alkali diluted with saline, higher T/C = longer survival", "result": "0 of 10 on day 33, 0 of 10 on day 41, 10 of 10 (2×)"}, {"measurement": "survivor count", "setting": "T/C endpoint: median survival time, dose: 600.0 mg/kg/injection, schedule: Q04DX005 (ip), vehicle: alkali diluted with saline, higher T/C = longer survival", "result": "10 of 10"}]}, {"smiles": "CN1C(=O)C(=Cc2ccc(O)cc2)C(=O)N(C)C1=O", "values": [{"measurement": "survivor count", "setting": "T/C endpoint: median tumor weight (est.), dose: 50.0 mg/kg/injection, schedule: Q07DX002 (ip), vehicle: saline with Tween-80, higher T/C = larger tumour", "result": "3 of 10 on day 20"}, {"measurement": "survivor count", "setting": "T/C endpoint: median tumor weight (est.), dose: 100.0 mg/kg/injection, schedule: Q07DX002 (ip), vehicle: saline with Tween-80, higher T/C = larger tumour", "result": "6 of 10 on day 20"}, {"measurement": "survivor count", "setting": "T/C endpoint: median tumor weight (est.), dose: 200.0 mg/kg/injection, schedule: Q07DX002 (ip), vehicle: saline with Tween-80, higher T/C = larger tumour", "result": "2 of 10 on day 20"}, {"measurement": "survivor count", "setting": "T/C endpoint: median tumor weight (est.), dose: 400.0 mg/kg/injection, schedule: Q07DX002 (ip), vehicle: saline with Tween-80, higher T/C = larger tumour", "result": "0 of 10 on day 20"}]}, {"smiles": "C/C=C\\C1OC1(C)c1cc(=O)c2c(C)cc3c(c2o1)C(=O)c1c(O)c(C2CC(C)(N(C)C)C(OC(C)=O)C(C)O2)cc(C2CC(N(C)C)C(O)C(C)O2)c1C3=O", "note": "(stereo not given)", "values": [{"measurement": "T/C", "setting": "T/C endpoint: median tumor weight (est.), dose: 1.5 mg/kg/injection, schedule: Q07DX002 (ip), vehicle: saline + alcohol, evaluated on day 20, higher T/C = larger tumour", "result": "131 % of control"}]}, {"smiles": "N#CC(=C1C=CC(=NO)C=C1)c1ccc(Cl)cc1", "values": [{"measurement": "T/C", "setting": "T/C endpoint: median tumor weight (est.), dose: 50.0 mg/kg/injection, schedule: Q07DX002 (ip), vehicle: saline with Tween-80, evaluated on day 20, higher T/C = larger tumour", "result": "128 % of control"}, {"measurement": "T/C", "setting": "T/C endpoint: median tumor weight (est.), dose: 200.0 mg/kg/injection, schedule: Q07DX002 (ip), vehicle: saline with Tween-80, evaluated on day 20, higher T/C = larger tumour", "result": "133 % of control"}]}]}
